Source: patent US20120093922A1, “PHARMACEUTICAL COMPOSITIONS COMPRISING EPA AND A CARDIOVASCULAR AGENT AND METHODS OF USING THE SAME” (AMARIN CORPORATION PLC, priority 2009, published 2012)
At least one compound was matched to its structure with a doubt left.

Assay: lipid peroxide (LOOH) formation in model membranes, CHOD-iodide colorimetric assay
Format: biochemical
Details: cholesterol-enriched DLPC membranes, autoxidation at 37° C.; EPA 10.0 μM; with or without atorvastatin

CC/C=C\C/C=C\C/C=C\C/C=C\C/C=C\CCCC(=O)O [EPA, eicosapentaenoic acid]
antioxidant benefit (membrane lipid peroxidation, lipid hydroperoxide levels): potent antioxidant benefit in cholesterol-enriched membranes that was superior to that observed with DHA
